In this experiment the target is T1, LEPROTL1-HA (human) (UniProt O95214).
T1 sequence: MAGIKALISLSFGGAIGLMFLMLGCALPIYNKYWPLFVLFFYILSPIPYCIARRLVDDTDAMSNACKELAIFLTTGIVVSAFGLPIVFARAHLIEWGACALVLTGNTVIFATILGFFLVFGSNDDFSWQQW
The experiment in a line: co-IP.

The record followed here is article doi:10.1101/2025.04.11.648407.

Results are given in words; binding and its absence hold for the method and conditions named. In cells and extracts the contact can be indirect. Sequences can lack the tags named with a protein.

Take “cathepsin D (from UniProt P07339) (enzyme)”: the binding result was “no binding”.
